Test results reported in patent US6562584B1, “Bacterial strains for the production of 2-keto-L-gulonic acid” (priority 1998, dated 2003).
At least one compound was matched to its structure with a doubt left.

The compounds below were run on strains NRRL B-30035, NRRL B-30037N, and NRRL B-30036 (assay: Antibiotic resistance by minimum inhibitory concentration (MIC), commercial "Pasco" system). Conditions: strains NRRL B-30035 (ADM 291-19), NRRL B-30037N (ADM 62A-12A), NRRL B-30036 (ADM 266-13B), based on physiologically attainable concentrations of antibiotic.
Type: cell-based
Source text: (6) Antibiotic resistance—sensitive to amikacin, augmentin (amoxicillin plus clavulonic acid), ampicillin, cefazolin, cefoxitin, ceftazidime, ceftiofur, cephalothin, enrofloxacin, florfenicol, gentamicin, imipenem, kanamycin, sarafloxicin, tetracycline, ticarcillin, and tilmicosin, but resistant to tribrissen ([…] plus sulfamethozole), as determined by minimum inhibitory concentration (MIC), based on physiologically attainable concentrations of antibiotic, employing the commercial “Pasco” system; and […]
With `C[C@@H](O)[C@H]1C(=O)N2C(C(=O)O)=C(SCCN=CN)C[C@H]12` [imipenem] the “Antibiotic resistance (sensitive / resistant) as determined by minimum inhibitory concentration (MIC)” value was “sensitive”. With `NC[C@H]1O[C@H](O[C@H]2[C@H](O)[C@@H](O[C@H]3O[C@H](CO)[C@@H](O)[C@H](N)[C@H]3O)[C@H](N)C[C@@H]2N)[C@H](O)[C@@H](O)[C@@H]1O` [kanamycin] the “Antibiotic resistance (sensitive / resistant) as determined by minimum inhibitory concentration (MIC)” value was “sensitive”. For `CN(C)[C@@H]1C(O)=C(C(N)=O)C(=O)[C@@]2(O)C(O)=C3C(=O)c4c(O)cccc4[C@@](C)(O)[C@H]3C[C@@H]12` [tetracycline], the “Antibiotic resistance (sensitive / resistant) as determined by minimum inhibitory concentration (MIC)” value was “sensitive”.
